Values quoted from earlier work, collected in patent publication US20050203062A1, “Use of tagatose in laxatives” (Spherix Incorporated, priority 2002, published 2005).

Conditions: FDA-approved value (upper value); cited from earlier work

O=C(CO)[C@@H](O)[C@@H](O)[C@H](O)CO [tagatose, D-tagatose]
caloric value approved by the US Food and Drug Administration: 1.5 calories per gram
